# According to publication PMC3597514:
# T1: full-length N (yeast two-hybrid fusion) (not stated ("Nicotiana", "tobacco")) (UniProt Q40392)
# T1 sequence: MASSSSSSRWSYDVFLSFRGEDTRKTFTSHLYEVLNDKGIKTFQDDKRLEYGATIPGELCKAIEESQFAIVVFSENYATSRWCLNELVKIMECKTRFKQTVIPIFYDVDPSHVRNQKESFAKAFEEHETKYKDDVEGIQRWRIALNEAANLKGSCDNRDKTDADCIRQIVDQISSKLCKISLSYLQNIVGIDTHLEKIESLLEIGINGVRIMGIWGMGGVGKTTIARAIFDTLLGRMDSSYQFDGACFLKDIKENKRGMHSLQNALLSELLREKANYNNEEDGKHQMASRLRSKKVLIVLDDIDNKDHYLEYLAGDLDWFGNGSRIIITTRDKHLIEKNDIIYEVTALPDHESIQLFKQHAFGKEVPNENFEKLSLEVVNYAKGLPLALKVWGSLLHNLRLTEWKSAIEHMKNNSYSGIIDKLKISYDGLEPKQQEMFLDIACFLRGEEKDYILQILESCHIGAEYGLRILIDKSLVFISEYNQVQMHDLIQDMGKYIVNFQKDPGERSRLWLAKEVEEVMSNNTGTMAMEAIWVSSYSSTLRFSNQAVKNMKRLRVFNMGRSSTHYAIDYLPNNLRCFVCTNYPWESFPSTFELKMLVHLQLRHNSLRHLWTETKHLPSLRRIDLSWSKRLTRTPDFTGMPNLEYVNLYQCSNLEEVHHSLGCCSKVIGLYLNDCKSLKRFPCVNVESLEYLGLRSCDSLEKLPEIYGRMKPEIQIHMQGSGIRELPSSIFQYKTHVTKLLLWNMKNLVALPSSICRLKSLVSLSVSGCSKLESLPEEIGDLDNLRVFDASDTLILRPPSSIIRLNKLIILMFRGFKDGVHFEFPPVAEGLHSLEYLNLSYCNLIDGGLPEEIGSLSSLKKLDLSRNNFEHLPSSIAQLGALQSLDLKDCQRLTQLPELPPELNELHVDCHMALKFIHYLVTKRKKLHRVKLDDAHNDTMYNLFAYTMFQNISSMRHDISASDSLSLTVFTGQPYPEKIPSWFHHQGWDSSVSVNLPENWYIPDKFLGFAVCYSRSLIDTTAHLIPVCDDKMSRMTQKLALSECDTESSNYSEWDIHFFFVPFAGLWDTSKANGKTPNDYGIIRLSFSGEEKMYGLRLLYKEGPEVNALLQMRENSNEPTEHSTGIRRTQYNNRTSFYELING
# T2: N TIR domain (yeast two-hybrid fusion) (not stated ("Nicotiana", "tobacco")) (UniProt Q40392)
# T2 sequence: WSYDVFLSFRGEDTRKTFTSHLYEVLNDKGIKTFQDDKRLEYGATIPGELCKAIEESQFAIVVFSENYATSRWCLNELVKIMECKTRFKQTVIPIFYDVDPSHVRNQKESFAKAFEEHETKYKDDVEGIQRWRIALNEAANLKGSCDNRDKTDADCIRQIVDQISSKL
# Assays:
# [1] = target: T1, full-length N (yeast two-hybrid fusion) (not stated ("Nicotiana", "tobacco")); experiment: two-hybrid; directed yeast two-hybrid; growth of yeast on media lacking leucine
# [2] = target: T2, N TIR domain (yeast two-hybrid fusion) (not stated ("Nicotiana", "tobacco")); experiment: as above
# [3] = target: T1, full-length N (yeast two-hybrid fusion) (not stated ("Nicotiana", "tobacco")); experiment: two-hybrid; yeast two-hybrid library screen with N; 14 clones found
# [4] = target: avrRps4-HA (Pseudomonas syringae); experiment: co-IP; N. benthamiana leaves co-expressing N and the HA-tagged effector; anti-HA agarose beads; extraction buffer with 150 mM NaCl; four washes with 300 mM NaCl and 0.2% Triton; blot for Myc
# [5] = target: rNbSPL6-HA (N. benthamiana); experiment: co-IP; N. benthamiana leaves co-expressing N and the HA-tagged protein, tCFP-p50-U1 infiltrated 8 or 12 h later; anti-HA agarose beads, 2 h at 4°C; buffer with 100 mM NaCl, 20 mM Tris pH 7.5, 0.1% Triton; washes with 200 mM NaCl; blot for Myc
# [6] = target: NbSPL6-Yc (N. benthamiana); experiment: split reporter; BiFC (split citrine) in N. benthamiana leaf cells, tCFP-p50-U1 infiltrated 8-12 h after N and NbSPL6; confocal microscopy 44 to 50 h after infiltration
# [7] = target: NbSPL6-Yc (N. benthamiana); experiment: split reporter; BiFC (split citrine) in N. benthamiana leaf cells in the presence of the full-length 126 kD TMV-U1 replicase (p126-U1-Cerulean)
molecule,measurement,setting,value
NbSPL6 (yeast two-hybrid fusion) (N. benthamiana),binding,[1],binds
same,binding,[2],binds
same,binding,[3],binds
"gN-6xMyc (receptor, UniProt Q40392 1-1144) MASSSSSSRWSYDVFLSFRGEDTRKTFTSHLYEVLNDKGIKTFQDDKRLEYGATIPGELCKAIEESQFAIVVFSENYATSRWCLNELVKIMECKTRFKQTVIPIFYDVDPSHVRNQKESFAKAFEEHETKYKDDVEGIQRWRIALNEAANLKGSCDNRDKTDADCIRQIVDQISSKLCKISLSYLQNIVGIDTHLEKIESLLEIGINGVRIMGIWGMGGVGKTTIARAIFDTLLGRMDSSYQFDGACFLKDIKENKRGMHSLQNALLSELLREKANYNNEEDGKHQMASRLRSKKVLIVLDDIDNKDHYLEYLAGDLDWFGNGSRIIITTRDKHLIEKNDIIYEVTALPDHESIQLFKQHAFGKEVPNENFEKLSLEVVNYAKGLPLALKVWGSLLHNLRLTEWKSAIEHMKNNSYSGIIDKLKISYDGLEPKQQEMFLDIACFLRGEEKDYILQILESCHIGAEYGLRILIDKSLVFISEYNQVQMHDLIQDMGKYIVNFQKDPGERSRLWLAKEVEEVMSNNTGTMAMEAIWVSSYSSTLRFSNQAVKNMKRLRVFNMGRSSTHYAIDYLPNNLRCFVCTNYPWESFPSTFELKMLVHLQLRHNSLRHLWTETKHLPSLRRIDLSWSKRLTRTPDFTGMPNLEYVNLYQCSNLEEVHHSLGCCSKVIGLYLNDCKSLKRFPCVNVESLEYLGLRSCDSLEKLPEIYGRMKPEIQIHMQGSGIRELPSSIFQYKTHVTKLLLWNMKNLVALPSSICRLKSLVSLSVSGCSKLESLPEEIGDLDNLRVFDASDTLILRPPSSIIRLNKLIILMFRGFKDGVHFEFPPVAEGLHSLEYLNLSYCNLIDGGLPEEIGSLSSLKKLDLSRNNFEHLPSSIAQLGALQSLDLKDCQRLTQLPELPPELNELHVDCHMALKFIHYLVTKRKKLHRVKLDDAHNDTMYNLFAYTMFQNISSMRHDISASDSLSLTVFTGQPYPEKIPSWFHHQGWDSSVSVNLPENWYIPDKFLGFAVCYSRSLIDTTAHLIPVCDDKMSRMTQKLALSECDTESSNYSEWDIHFFFVPFAGLWDTSKANGKTPNDYGIIRLSFSGEEKMYGLRLLYKEGPEVNALLQMRENSNEPTEHSTGIRRTQYNNRTSFYELING",binding,[4],no binding
same,binding,[5],binds
"gN-Yn (receptor, UniProt Q40392 1-1144) MASSSSSSRWSYDVFLSFRGEDTRKTFTSHLYEVLNDKGIKTFQDDKRLEYGATIPGELCKAIEESQFAIVVFSENYATSRWCLNELVKIMECKTRFKQTVIPIFYDVDPSHVRNQKESFAKAFEEHETKYKDDVEGIQRWRIALNEAANLKGSCDNRDKTDADCIRQIVDQISSKLCKISLSYLQNIVGIDTHLEKIESLLEIGINGVRIMGIWGMGGVGKTTIARAIFDTLLGRMDSSYQFDGACFLKDIKENKRGMHSLQNALLSELLREKANYNNEEDGKHQMASRLRSKKVLIVLDDIDNKDHYLEYLAGDLDWFGNGSRIIITTRDKHLIEKNDIIYEVTALPDHESIQLFKQHAFGKEVPNENFEKLSLEVVNYAKGLPLALKVWGSLLHNLRLTEWKSAIEHMKNNSYSGIIDKLKISYDGLEPKQQEMFLDIACFLRGEEKDYILQILESCHIGAEYGLRILIDKSLVFISEYNQVQMHDLIQDMGKYIVNFQKDPGERSRLWLAKEVEEVMSNNTGTMAMEAIWVSSYSSTLRFSNQAVKNMKRLRVFNMGRSSTHYAIDYLPNNLRCFVCTNYPWESFPSTFELKMLVHLQLRHNSLRHLWTETKHLPSLRRIDLSWSKRLTRTPDFTGMPNLEYVNLYQCSNLEEVHHSLGCCSKVIGLYLNDCKSLKRFPCVNVESLEYLGLRSCDSLEKLPEIYGRMKPEIQIHMQGSGIRELPSSIFQYKTHVTKLLLWNMKNLVALPSSICRLKSLVSLSVSGCSKLESLPEEIGDLDNLRVFDASDTLILRPPSSIIRLNKLIILMFRGFKDGVHFEFPPVAEGLHSLEYLNLSYCNLIDGGLPEEIGSLSSLKKLDLSRNNFEHLPSSIAQLGALQSLDLKDCQRLTQLPELPPELNELHVDCHMALKFIHYLVTKRKKLHRVKLDDAHNDTMYNLFAYTMFQNISSMRHDISASDSLSLTVFTGQPYPEKIPSWFHHQGWDSSVSVNLPENWYIPDKFLGFAVCYSRSLIDTTAHLIPVCDDKMSRMTQKLALSECDTESSNYSEWDIHFFFVPFAGLWDTSKANGKTPNDYGIIRLSFSGEEKMYGLRLLYKEGPEVNALLQMRENSNEPTEHSTGIRRTQYNNRTSFYELING",binding,[6],binds
same,binding,[7],binds
"gN^GK221-222AA-6xMyc (receptor, UniProt Q40392 1-1144) MASSSSSSRWSYDVFLSFRGEDTRKTFTSHLYEVLNDKGIKTFQDDKRLEYGATIPGELCKAIEESQFAIVVFSENYATSRWCLNELVKIMECKTRFKQTVIPIFYDVDPSHVRNQKESFAKAFEEHETKYKDDVEGIQRWRIALNEAANLKGSCDNRDKTDADCIRQIVDQISSKLCKISLSYLQNIVGIDTHLEKIESLLEIGINGVRIMGIWGMGGVAATTIARAIFDTLLGRMDSSYQFDGACFLKDIKENKRGMHSLQNALLSELLREKANYNNEEDGKHQMASRLRSKKVLIVLDDIDNKDHYLEYLAGDLDWFGNGSRIIITTRDKHLIEKNDIIYEVTALPDHESIQLFKQHAFGKEVPNENFEKLSLEVVNYAKGLPLALKVWGSLLHNLRLTEWKSAIEHMKNNSYSGIIDKLKISYDGLEPKQQEMFLDIACFLRGEEKDYILQILESCHIGAEYGLRILIDKSLVFISEYNQVQMHDLIQDMGKYIVNFQKDPGERSRLWLAKEVEEVMSNNTGTMAMEAIWVSSYSSTLRFSNQAVKNMKRLRVFNMGRSSTHYAIDYLPNNLRCFVCTNYPWESFPSTFELKMLVHLQLRHNSLRHLWTETKHLPSLRRIDLSWSKRLTRTPDFTGMPNLEYVNLYQCSNLEEVHHSLGCCSKVIGLYLNDCKSLKRFPCVNVESLEYLGLRSCDSLEKLPEIYGRMKPEIQIHMQGSGIRELPSSIFQYKTHVTKLLLWNMKNLVALPSSICRLKSLVSLSVSGCSKLESLPEEIGDLDNLRVFDASDTLILRPPSSIIRLNKLIILMFRGFKDGVHFEFPPVAEGLHSLEYLNLSYCNLIDGGLPEEIGSLSSLKKLDLSRNNFEHLPSSIAQLGALQSLDLKDCQRLTQLPELPPELNELHVDCHMALKFIHYLVTKRKKLHRVKLDDAHNDTMYNLFAYTMFQNISSMRHDISASDSLSLTVFTGQPYPEKIPSWFHHQGWDSSVSVNLPENWYIPDKFLGFAVCYSRSLIDTTAHLIPVCDDKMSRMTQKLALSECDTESSNYSEWDIHFFFVPFAGLWDTSKANGKTPNDYGIIRLSFSGEEKMYGLRLLYKEGPEVNALLQMRENSNEPTEHSTGIRRTQYNNRTSFYELING",binding,[4],no binding

# These are yes or no findings as the source states them, for the method shown. For some assays here: A result given as binding can be weak or reduced; the word gives no strength. For some assays here: Tags and fused reporters may be left off the sequences shown. For some assays here: Binding seen in cells or lysates may run through a third protein.
